Data on 40 compounds can be found in the supplement of paper PMC6119338.

The structures appear in SMILES notation. This is one part of the list. Single values are uncertain, as repeats are few or missing. Where only a bound is given, the exact number is not on record here.

In this assay the test system is Plasmodium berghei sporozoites. The experiment in a line: residual sporozoite gliding motility relative to DMSO control; higher = less inhibition of motility. Conditions: 10 µM; incubation time 30 min. On the procedure: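 GFP-expressing Plasmodium berghei salivary gland sporozoites (about 2000 per well, 384-well plate, RPMI with 3% BSA) were incubated 30 min with MMV Malaria Box compounds at 10 uM, then imaged at 1 Hz for 30 s. Sporozoites moving more than one parasite length were counted manually and expressed as percentage residual motility relative to DMSO controls. The pilot screen was a single assay per compound; apparent hits were repeated up to two more times. 'No observable inhibition' in the pilot screen is encoded as inactive (>50% residual, active false), a coarse placeholder rather than a measured value.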
`CCOC(=O)c1cn(CC)c2cc(N3CCCCC3)c(F)cc2c1=O`: the “residual sporozoite gliding motility” value was above 50%. The result for `CC1CC(C)CN(C(=O)c2ccc(Cl)cc2Cl)C1` (stereo not given) reads above 50%. The result for `CCCCCCn1c(=N)n(CC(O)COc2cccc(C)c2)c2ccccc21` (stereo not given) reads above 50%; that for `CN1c2ccccc2N(C)C1c1ccc2c(c1)OCO2`, above 50%; that for `FC(F)(F)c1ccc(Nc2nnnc3ccccc23)cc1`, above 50%. Consider `OC(Cn1nnc2ccccc21)Cn1c2ccc(Br)cc2c2cc(Br)ccc21` (stereo not given), for which the “residual sporozoite gliding motility” value is above 50%. The result for `COc1cccc(Nc2nc(NCCO)c3ccccc3n2)c1` reads above 50%; that for `COc1ccc2sc(N(Cc3cccnc3)C(=O)c3ccc(C#N)cc3)nc2c1`, above 50%; that for `COc1ccc(-c2cc3c(nn2)-c2ccccc2C3=O)cc1`, above 50%. As to `Cc1cc(N2CCN(C3CCCC3)CC2)n2c(nc3ccccc32)c1C#N`, the “residual sporozoite gliding motility” value is above 50%.

Turning to `Cc1ccnc(NC(c2cccc(OCc3ccccc3)c2)c2ccc3cccnc3c2O)c1` (stereo not given), the “residual sporozoite gliding motility” value is above 50%.

Consider `COc1ccc(C=C2SC(=N)N(c3ccccc3OC)C2=O)cc1`, for which the “residual sporozoite gliding motility” value is above 50%. In the case of `N=c1n(CCN2CCCCC2)c2ccccc2n1CC(=O)c1ccc(Cl)c(Cl)c1` it was above 50%. In the case of `COc1ccc(-c2nc3cc(Cc4ccc5[nH]c(-c6ccc(OC)cc6)nc5c4)ccc3[nH]2)cc1` it was above 50%; in that of `CCCCCn1c(=N)n(CC(O)COc2cccc(C)c2)c2ccccc21` (stereo not given), above 50%. The result for `Cc1ccccc1OCCSc1nc2ccc(NC(=O)c3ccccc3)cc2s1` reads above 50%; that for `O=C(NCCCN1CCC(N2CCCCC2)CC1)C1=Cc2cc(Br)ccc2OC1`, above 50%.

As for `COc1cc(C(=O)Nc2nc3c(cc4c5c(cccc53)CC4)s2)cc(OC)c1OC`, the “residual sporozoite gliding motility” value is above 50%.

As to `COc1ccc(-c2nc(N3CCN(C(=O)C4CCCCC4)CC3)c3c4c(sc3n2)CCCC4)cc1`, the “residual sporozoite gliding motility” value is above 50%. As to `O=C(Nc1nc(-c2ccccn2)cs1)c1ccccc1Br`, the “residual sporozoite gliding motility” value is above 50%. On to `O=C(O)C1Cc2c([nH]c3ccccc23)C(c2ccc(Cl)cc2Cl)N1` (stereo not given), for which the “residual sporozoite gliding motility” value was above 50%. With `O=C(NC1CCCCC1)C(c1cccs1)N(CCc1ccccc1)C(=O)c1ccco1` (stereo not given), the “residual sporozoite gliding motility” value was above 50%. On to `COc1ccc(CNC(=O)c2cc3c(=O)n4ccccc4nc3n(CCc3ccccc3)c2=N)cc1`, for which the “residual sporozoite gliding motility” value is above 50%.

As for `O=c1c2c([nH]c3ccccc13)CCCC2`, the “residual sporozoite gliding motility” value is above 50%. Regarding `COc1cccc(C(=O)Nc2ccc(-c3nc4ccccc4[nH]3)cc2)c1`, the “residual sporozoite gliding motility” value was above 50%.

For the compound `CCOC(=O)c1cnc2ccc(OC)cc2c1NCc1ccccc1`, the “residual sporozoite gliding motility” value is above 50%. Turning to `CCCCOC(=O)c1ccc(Nc2cc(C)nc3ccc(OC)cc23)cc1`, the “residual sporozoite gliding motility” value is above 50%. Take `COc1ccc2c(=O)cc(C(Cl)(Cl)Cl)oc2c1`: the “residual sporozoite gliding motility” value was above 50%. Consider `CCOc1c(Cl)cc(CNCC(O)c2ccccc2)cc1OC` (stereo not given), for which the “residual sporozoite gliding motility” value was above 50%. With `CN(C)CCCNc1c2ccccc2nc2ccccc12`, the “residual sporozoite gliding motility” value was above 50%. As to `Cn1c(C(=O)c2cccc3ccccc23)nc2ccccc21`, the “residual sporozoite gliding motility” value was above 50%. As for `CCOc1ccc(-n2cc(-c3ccccc3)c3c(SCc4cc(C)ccc4C)ncnc32)cc1`, the “residual sporozoite gliding motility” value was above 50%.

Turning to `Cc1cc(Nc2cccc(F)c2)nc(NCc2ccccc2)n1`, the “residual sporozoite gliding motility” value was above 50%. The result for `O=C(Nc1cccc(-c2nc3ccccc3[nH]2)c1)c1cccc(NC(=O)c2ccco2)c1` reads above 50%; that for `Cc1cc(NCCN2CCCCC2)c2ccc3ccccc3c2n1`, above 50%. Turning to `CCOC(=O)c1c(NC(=O)c2ccccc2)sc2c(O)c(CN(CC)CC)ccc12`, the “residual sporozoite gliding motility” value was above 50%. Consider `O=C(NC1CCN(Cc2ccccc2)CC1)c1cc2nc(-c3ccc(Cl)s3)cc(C(F)(F)F)n2n1`, for which the “residual sporozoite gliding motility” value was above 50%. On to `O=C(Nc1ccc(Br)cc1)Nc1cccc(Cl)c1`, for which the “residual sporozoite gliding motility” value is above 50%. For the compound `CCOc1cc(Cl)c(C(C)NC(=O)c2ccccc2)cc1OCC` (stereo not given), the “residual sporozoite gliding motility” value was above 50%. As to `COc1ccc(CCNC(=O)c2cc(S(=O)(=O)N3CC(C)CC(C)C3)ccc2Sc2ccc(F)cc2)cc1OC` (stereo not given), the “residual sporozoite gliding motility” value was above 50%.
